# At least one structure is not confirmed: it was looked up by name or label, or the drawing left a doubt.
# Experiment: Dissolution of antibiotic in Wash NEXT reagent
# Assay type: physicochemical
# Conditions: 1% in Wash NEXT base pool
compound,measurement,value
CN(C)[C@@H]1C(O)=C(C(N)=O)C(=O)[C@@]2(O)C(O)=C3C(=O)c4c(O)cccc4[C@@](C)(O)[C@H]3C[C@@H]12 [tetracycline],dissolution in the Wash reagent,neither antibiotic completely dissolved in the Wash reagent

# From patent publication US20140094424A1, “MICROBICIDAL COMPOSITIONS AND METHODS OF PRODUCTION USE THEREOF” (priority 2011, published 2014)
